{"source": "patent EP4825843A1", "about": "“IMIDAZOLE LIPID AND USE THEREOF” (dated 2026)", "key": {"[1]": {"assay": "Size and polydispersity index of lipid nanoparticles by dynamic light scattering (Malvern Zetasizer Pro)", "conditions": "lipid nanoparticle composition (lipid:DSPC:cholesterol:DMG-PEG 50:10:38.5:1.5) encapsulating luciferase mRNA", "procedure": "(§1) Compounds 1, 2, and 3 and comparative compounds 1, 2, and 3 were each dissolved in an ethanol solution, and each of the resulting solutions was mixed with solutions of DSPC, cholesterol, and DMG-PEG in ethanol in a molar percent (mol %) ratio of 50:10:38.5:1.5 to prepare an ethanol lipid solution. mRNA (luciferase, GenBank: MN728548.1) was dissolved in a 50 mM acetic acid buffer (pH 5) to prepare an aqueous mRNA solution (0.2 mg/mL). Each of the ethanol lipid solutions was mixed with the aqueous mRNA solution by microfluidics, with the volume ratio of the ethanol phase to the aqueous phase being 1:3 and the weight ratio of total lipids to mRNA being about 20:1, to prepare liposomes. Ethanol was removed by dialysis against a 20 mM Tris solution (pH 7.5). Finally, each solution was exchanged into a 20 mM Tris, 8% sucrose solution, and the resulting solutions were cryopreserved to obtain lipid nanoparticle compositions in which mRNA was encapsulated.\nThe size and polydispersity index (PDI) of the lipid nanoparticles were determined using a Malvern Zetasizer Pro in a 173° backscatter detection mode and dynamic light scattering."}, "[2]": {"assay": "Liposome encapsulation efficiency, Quant-iT RiboGreen RNA assay kit", "conditions": "lipid nanoparticle composition encapsulating luciferase mRNA", "procedure": "as §1\nThe liposome encapsulation efficiency was determined using a Quant-iT RiboGreen RNA assay kit."}, "[3]": {"tested_on": "A549 cells (human non-small cell lung cancer cells)", "assay": "Non-immune cell in vitro transfection efficiency (luciferase mRNA LNP, fluorescence intensity)", "procedure": "(§2) Non-immune cells such as A549 cells (human non-small cell lung cancer cells) and immune cells such as Jurkat cells (human T cells) (from ATCC) were cultured in 96-well plates, respectively. The lipid nanoparticle compositions in which the luciferase mRNA (luciferase, GenBank: MN728548.1) was encapsulated were added to the cell well plates. After 24 h of incubation, the luciferase substrate (D-luciferin potassium salt, Cat. No. abs42075819) was added, and the fluorescence intensity was measured using a microplate reader. The fluorescence intensity indicates the level of luciferase protein expression, i.e., the delivery efficiency of the lipid nanoparticles corresponding to the compounds on different cells."}, "[4]": {"tested_on": "Jurkat cells (human T cells)", "assay": "Immune cell in vitro transfection efficiency (luciferase mRNA LNP, fluorescence intensity)", "procedure": "as §2"}, "[5]": {"tested_on": "Liver", "assay": "Expression level of luciferase mRNA delivered by tail vein injection in tissues, IVIS imaging", "conditions": "luciferase mRNA LNP, tail vein injection 0.5 mg/kg, 6 h after administration; comparative compound 1 taken as a unit 1", "procedure": "(§3) Lipid nanoparticle compositions in which a luciferase-expressing mRNA (luciferase, GenBank: MN728548.1) was encapsulated (prepared according to the preparation method in Example 5) were administered to female Balb/c mice aged 6-8 weeks by tail vein injection at a dose of 0.5 mg/kg. Six hours after administration, the luciferase substrate (D-luciferin potassium salt, Cat. No. abs42075819) was injected intraperitoneally into each mouse. The mice were dissected, their livers and spleens were collected and photographed using an IVIS small-animal optical in vivo imaging system (PerkinElmer), and the fluorescence intensity of each tissue was measured. For the lipid nanoparticle composition corresponding to each compound, at least 3 biological replicates were set, and the mean fluorescence intensity was calculated. The fluorescence intensity indicates the level of luciferase protein expression. The relative fluorescence intensities, i.e., relative protein expression levels, of compounds 1, 2, and 3 and comparative compounds 1 and 3 were calculated with the fluorescence intensity of the lipid nanoparticle composition corresponding to comparative compound 1 taken as a unit 1. For example, the ratio of the tissue fluorescence intensity of compound 1 to the tissue fluorescence intensity of comparative compound 1 is the relative protein expression level of compound 1. […]"}, "[6]": {"tested_on": "Spleen", "assay": "Expression level of luciferase mRNA delivered by tail vein injection in tissues, IVIS imaging", "conditions": "luciferase mRNA LNP, tail vein injection 0.5 mg/kg, 6 h after administration; comparative compound 1 taken as a unit 1", "procedure": "as §3"}}, "note": "Structures were worked out from names or drawings and are uncertain."}
{"smiles": "CCCCCCCCC(CCCCCCCC)OC(=O)CCCCCCCN(CCCCCOCC(=O)OC(CCCCCCCC)CCCCCCCC)CCCn1ccnc1", "values": [{"measurement": "PDI", "setting": "[1]", "result": 0.17}, {"measurement": "Size (nm)", "setting": "[1]", "result": 84.2, "unit": "nm"}, {"measurement": "Encapsulation efficiency (%)", "setting": "[2]", "result": 98.8, "unit": "%"}, {"measurement": "Mean fluorescence intensity (p/s)", "setting": "[3]; LNP composition with luciferase mRNA, 24 h of incubation", "result": "9.92E+03", "unit": "p/s"}, {"measurement": "Relative fluorescence intensity", "setting": "[3]; comparative compound 2 taken as a unit 1", "result": 0.48}, {"measurement": "Fluorescence intensity relative to that of the lipid nanoparticle composition corresponding to comparative compound 2", "setting": "[4]; immune cells", "result": 6, "unit": "times"}, {"measurement": "Mean fluorescence intensity (p/s)", "setting": "[4]; immune cells (Jurkat), LNP composition with luciferase mRNA, 24 h of incubation", "result": "1.79E+04", "unit": "p/s"}, {"measurement": "Relative fluorescence intensity", "setting": "[4]; immune cells (Jurkat), comparative compound 2 taken as a unit 1", "result": 6.43}, {"measurement": "Relative protein expression level Liver", "setting": "[5]", "result": 0.6}, {"measurement": "Relative protein expression level Spleen", "setting": "[6]", "result": 1.4}]}
